From patent US20140349944A1, “CHAPERONE-BASED INTEGRIN INHIBITORS FOR THE TREATMENT OF CANCER AND INFLAMMATORY DISEASES” (priority 2013, published 2014)
No constants are given. Whether binding was seen depends on the method and setting. Binding seen in cells or lysates may run through a third protein. Some entries that bind do so weakly or less than the wild type. Where a sequence is shown, tags or fusion partners need not be part of it.

The chains behind the UniProt entries cited, without tags or fusion partners. Residues count along the entry.
UniProt P08113, residues 22-802: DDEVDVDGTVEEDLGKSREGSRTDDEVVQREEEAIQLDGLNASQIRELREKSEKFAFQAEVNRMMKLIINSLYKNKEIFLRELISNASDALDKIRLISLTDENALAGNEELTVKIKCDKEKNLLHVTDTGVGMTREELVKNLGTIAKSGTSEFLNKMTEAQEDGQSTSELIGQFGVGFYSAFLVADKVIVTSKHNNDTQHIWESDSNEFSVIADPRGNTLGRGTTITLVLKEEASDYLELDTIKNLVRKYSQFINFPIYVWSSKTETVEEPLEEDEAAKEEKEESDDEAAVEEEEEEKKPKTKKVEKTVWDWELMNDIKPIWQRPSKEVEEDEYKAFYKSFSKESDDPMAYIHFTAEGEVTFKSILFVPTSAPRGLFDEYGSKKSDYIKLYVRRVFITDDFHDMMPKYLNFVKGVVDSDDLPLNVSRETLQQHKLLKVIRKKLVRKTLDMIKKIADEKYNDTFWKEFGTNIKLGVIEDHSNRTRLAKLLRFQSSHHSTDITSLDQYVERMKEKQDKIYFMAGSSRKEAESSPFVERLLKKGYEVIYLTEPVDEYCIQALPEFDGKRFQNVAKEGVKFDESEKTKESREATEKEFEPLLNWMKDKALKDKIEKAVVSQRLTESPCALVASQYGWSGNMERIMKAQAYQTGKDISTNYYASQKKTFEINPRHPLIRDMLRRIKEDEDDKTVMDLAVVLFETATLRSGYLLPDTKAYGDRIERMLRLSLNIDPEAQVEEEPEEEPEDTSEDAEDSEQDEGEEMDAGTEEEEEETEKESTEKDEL

Key:
[1] = biological target: gp96 (mouse) (mouse) (UniProt P08113); experiment: GST pull-down from murine B cell lysates, immunoblot (FIG. 2A)
[2] = biological target: gp96 (mouse) (mouse) (UniProt P08113); experiment: GST pull-down from murine B cell lysates, immunoblot (legend of FIG. 2A)

Row | Binder | binding [1] | binding [2]
1 | GST-tagged AID of integrin α1 (protein, mouse, UniProt Q3V3R4 170-364, looked up, not shown: a dimerising Fc or GST) QLDIVIVLDGSNSIYPWESVTAFLNDLLKRMDIGPKQTQVGIVQYGANVTHEFNLNKYSSTEEVLVAANKIGRRGGLQTMTALGIDTARKEAFTEARGARRGVKKVMVIVTDGESHDNYRLKQVIQDCEDENIQRFSIAILGHYNRGNLSTEKFVEEIKSIASEPTEKHFFNVSDELALVTIVKALGERIFALEA | binds | binds
2 | GST-tagged AID of integrin αE (protein, mouse, UniProt Q60677 195-378, looked up, not shown: a dimerising Fc or GST) EIAIVLDGSGSIEPSDFQKAKNFISTMMRNFYEKCFECNFALVQYGAVIQTEFDLQESRDINASLAKVQSIVQVKEVTKTASAMQHVLDNIFIPSRGSRKKALKVMVVLTDGDIFGDPLNLTTVINSPKMQGVVRFAIGVGDAFKNNNTYRELKLIASDPKEAHTFKVTNYSALDGLLSKLQQH | binds | binds
3 | GST-tagged AID of integrin αL (protein, mouse, UniProt P24063 150-330, looked up, not shown: a dimerising Fc or GST) GKVDLVFLFDGSQSLDRKDFEKILEFMKDVMRKLSNTSYQFAAVQFSTDCRTEFTFLDYVKQNKNPDVLLGSVQPMFLLTNTFRAINYVVAHVFKEESGARPDATKVLVIITDGEASDKGNISAAHDITRYIIGIGKHFVSVQKQKTLHIFASEPVEEFVKILDTFEKLKDLFTDLQRRIY | binds | binds
4 | GST-tagged AID of integrin αM (protein, mouse, UniProt P05555 148-338, looked up, not shown: a dimerising Fc or GST) ESDIVFLIDGSGSINNIDFQKMKEFVSTVMEQFKKSKTLFSLMQYSDEFRIHFTFNDFKRNPSPRSHVSPIKQLNGRTKTASGIRKVVRELFHKTNGARENAAKILVVITDGEKFGDPLDYKDVIPEADRAGVIRYVIGVGNAFNKPQSRRELDTIASKPAGEHVFQVDNFEALNTIQNQLQEKIFAIEGT | binds | binds
5 | GST-tagged AID of integrin α2 (protein, mouse, UniProt Q62469 170-365, looked up, not shown: a dimerising Fc or GST) VDVVVVCDESNSIYPWEAVKNFLVKFVTGLDIGPKKTQVALIQYANEPRIIFNLNDFETKEDMVQATSETRQHGGDLTNTFRAIEFARDYAYSQTSGGRPGATKVMVVVTDGESHDGSKLKTVIQQCNDDEILRFGIAVLGYLNRNALDTKNLIKEIKAIASTPTERYFFNVADEAALLEKAGTLGEQIFSIEGTV | binds | binds
6 | GST-tagged AID of integrin αD (protein, mouse, UniProt Q3V0T4 159-341, looked up, not shown: a dimerising Fc or GST) DIAFLIDGSGSIDQSDFTQMKDFVKALMGQLASTSTSFSLMQYSNILKTHFTFTEFKSSLSPQSLVDAIVQLQGLTYTASGIQKVVKELFHSKNGARKSAKKILIVITDGQKFRDPLEYRHVIPEAEKAGIIRYAIGVGDAFREPTALQELNTIGSAPSQDHVFKVGNFVALRSIQRQIQEKI | binds | binds
